This is an account of results in PMC3402478, “ADP Ribosylation by PARP-1 Suppresses HOXB7 Transcriptional Activity”.

Protein sequences, listed by entry. Tags and fused reporters are not part of them. Lines headed by an entry give the natural chain unless they say otherwise; changes in a name come on top.
UniProt P09629: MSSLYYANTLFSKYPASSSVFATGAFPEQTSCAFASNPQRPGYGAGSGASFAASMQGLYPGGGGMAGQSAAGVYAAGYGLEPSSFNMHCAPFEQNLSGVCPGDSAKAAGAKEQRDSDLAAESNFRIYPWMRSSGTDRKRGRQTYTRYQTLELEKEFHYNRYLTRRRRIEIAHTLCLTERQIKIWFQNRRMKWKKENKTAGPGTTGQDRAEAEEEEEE
UniProt P09874: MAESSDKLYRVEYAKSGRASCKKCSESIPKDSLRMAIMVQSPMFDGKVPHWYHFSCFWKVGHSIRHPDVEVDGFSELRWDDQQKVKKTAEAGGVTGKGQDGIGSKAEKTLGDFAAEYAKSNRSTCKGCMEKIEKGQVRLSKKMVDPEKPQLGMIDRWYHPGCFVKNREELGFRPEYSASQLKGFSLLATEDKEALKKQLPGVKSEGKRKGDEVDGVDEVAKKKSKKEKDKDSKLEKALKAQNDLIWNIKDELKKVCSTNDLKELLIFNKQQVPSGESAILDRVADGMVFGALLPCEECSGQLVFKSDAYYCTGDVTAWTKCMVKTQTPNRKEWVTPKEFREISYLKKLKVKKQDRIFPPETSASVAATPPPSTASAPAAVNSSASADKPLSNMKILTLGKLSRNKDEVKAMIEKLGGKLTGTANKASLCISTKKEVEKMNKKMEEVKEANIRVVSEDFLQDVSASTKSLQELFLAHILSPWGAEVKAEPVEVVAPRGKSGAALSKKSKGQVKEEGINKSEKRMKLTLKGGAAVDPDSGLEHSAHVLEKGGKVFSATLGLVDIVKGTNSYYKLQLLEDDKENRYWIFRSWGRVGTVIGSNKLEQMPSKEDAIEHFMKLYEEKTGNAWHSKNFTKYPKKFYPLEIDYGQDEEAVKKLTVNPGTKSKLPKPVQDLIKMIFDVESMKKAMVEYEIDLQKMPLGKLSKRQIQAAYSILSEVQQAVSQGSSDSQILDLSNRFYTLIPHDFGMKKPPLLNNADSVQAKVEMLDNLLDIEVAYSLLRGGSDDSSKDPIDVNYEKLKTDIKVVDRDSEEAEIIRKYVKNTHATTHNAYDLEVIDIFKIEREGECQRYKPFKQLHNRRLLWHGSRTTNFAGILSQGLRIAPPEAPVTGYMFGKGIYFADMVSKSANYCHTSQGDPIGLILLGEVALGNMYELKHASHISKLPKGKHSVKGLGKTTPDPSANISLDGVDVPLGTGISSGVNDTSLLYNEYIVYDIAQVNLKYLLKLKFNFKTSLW

The target in this experiment is FB7Δh3 (UniProt P09629). Description: co-IP; Flag-tagged HOXB7 or its deletion/mutant constructs transiently transfected into CHO cells together with a PARP expression construct; immunoprecipitation with FLAG antibodies, immunoblot with PARP antibodies (the methods say HEK293T, myc-tagged PARP1, anti-myc blot). (In western blotting, separated proteins are transferred to a membrane and probed.)

No constants are given. Whether binding was seen depends on the method and setting. Binding seen in cells or lysates may run through a third protein. Binding calls can cover weak binding; strength is not graded here.

“PARP-1 from a PARP expression construct (PARPpCR3.1), in CHO cells (from UniProt P09874 1-1014) (enzyme)”: the binding entry is listed as “binds”.
